{"source": "PubChem BioAssay AID602313", "about": "(National Center for Advancing Translational Sciences (NCATS), 2012)", "note": "About 760 (0.19%) of roughly 390,000 compounds were called active. Inconclusive means that the source gave no clear call. Such entries were picked first, then a sample of the others. The call rests on the fitted dose curve; in most records, active means well fitted inhibition curve with a large enough effect; inconclusive means small, poorly fitted or top-dose-only effect; inactive means flat fitted curve, though single readings scatter. A potency beside an inconclusive call is a rough fit, not a confirmed value. Potency means the concentration at half of the fitted maximal effect."}
{"assay": "qHTS for Inhibitors of Vif-A3F Interactions: qHTS; further: nearly all actives have a fitted effect of over 65% in size; on activity, negative = active: % of control where 0% means no effect", "settings": "HeLa A3F-eYFP + Vif (tagged APOBEC3F with the HIV-1 protein that degrades it), YFP fluorescence increase; series mostly up to 46.1 µM; activity, negative = active: at the top concentration", "method_in_brief": "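HeLa cells stably expressing Vif plus C-terminally eYFP-tagged A3F were seeded, incubated overnight at 37 deg C, dosed with compound, incubated overnight again at 37 deg C. Yellow fluorescence (Ex 488/Em 500-530) reported blocked Vif-mediated A3F-eYFP degradation.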"}
{"smiles": "CCOC(=O)C(Cc1ccccc1)(Cc1ccccc1)C(C)=O", "Potency": "inconclusive: 35.5 µM [inhibitor, single point]"}
{"smiles": "CC(C)c1ccc(NC(=O)C2CCCN(S(=O)(=O)c3cccc4nsnc34)C2)cc1", "note": "(configuration not stated)", "Potency": "inconclusive: 14.1 µM [inhibitor, partial curve, poor fit]"}
{"smiles": "O=C(Nc1nc(-c2ccccn2)cs1)c1ccc(-c2ccccc2F)o1", "Potency": "inconclusive: 20 µM [inhibitor, single point]"}
{"smiles": "CCOC(=O)C1=C(N)Oc2cc(O)ccc2C1c1ccc(F)cc1F", "note": "(configuration not stated)", "Potency": "inconclusive: 3.98 µM [inhibitor, single point]"}
{"smiles": "CN(C)/C(=N\\S(=O)(=O)c1ccc(Cl)cc1)c1ccc(F)cc1", "Potency": "inconclusive: 3.16 µM [inhibitor, partial curve, poor fit]"}
{"smiles": "Oc1ccccc1C=NNC(=S)NC1CC2C=CC1C2", "note": "(configuration not stated)", "Potency": "inconclusive: 3.98 µM [inhibitor, partial curve, poor fit]"}
{"smiles": "CCOc1cc(/C=C2\\SC(=S)N(C(C(=O)O)c3ccccc3)C2=O)ccc1O", "note": "(configuration not stated)", "Potency": "inconclusive: 28.2 µM [inhibitor, single point]"}
{"smiles": "O=C1c2ccccc2C(=O)N1CC(O)COc1ccc(Br)cc1", "note": "(configuration not stated)", "Potency": "inconclusive: 3.55 µM [inhibitor, partial curve, poor fit]"}
{"smiles": "N#CCSc1nc2c(sc(=S)n2Cc2ccco2)c(=O)n1-c1ccc(F)cc1", "activity, negative = active": "inactive: -12.5%"}
{"smiles": "O=C(CCS(=O)(=O)Cc1ccc(Cl)cc1)NCCc1ccccc1", "Potency": "inconclusive: 35.5 µM [inhibitor, single point]"}
{"smiles": "O=c1[nH]c2cc3c(cc2cc1CN(Cc1cccnc1)C(=S)NCc1ccco1)OCCO3", "Potency": "inconclusive: 5.62 µM [inhibitor, single point]"}
{"smiles": "COc1ccc(N(CC(=O)N/N=C/c2ccc(-c3ccc([N+](=O)[O-])cc3)o2)S(=O)(=O)c2ccc(C)cc2)cc1", "Potency": "inconclusive: 35.5 µM [inhibitor, single point]"}
{"smiles": "COc1ccc(NC(=O)c2sc3nc(-c4cc5ccc(OC)cc5oc4=O)[nH]c(=O)c3c2C)cc1", "Potency": "inconclusive: 35.5 µM [inhibitor, single point]"}
{"smiles": "COc1ccc(-c2cn3nc(N4CCCC(C(=O)Nc5cc(C)ccc5C)C4)sc3n2)cc1", "note": "(configuration not stated)", "activity, negative = active": "inactive: 9.16%"}
{"smiles": "CN(C)c1ccc(/C=C/c2nc3ccccc3s2)cc1", "Potency": "inconclusive: 35.5 µM [inhibitor, single point]"}
{"smiles": "O=C(Cn1c(=O)nc(-c2ccccc2)c2ccccc21)NCCc1ccc(Cl)cc1", "activity, negative = active": "inactive: 0.765%"}
{"smiles": "CCOc1ccc(S(=O)(=O)N2CCN=C2c2ccccc2)cc1", "Potency": "inconclusive: 12.6 µM [inhibitor, partial curve, poor fit]"}
